From patent CN112300289A
No constants are given. Whether binding was seen depends on the method and setting. Binding can be weak; no strength is given. Where a sequence is shown, tags or fusion partners need not be part of it.

Molecular target: TNFα
Assay: concluded from the L929 cytotoxicity assay; no direct binding assay

B1: RGD4C融合抗TNFα纳米抗体 N端-VHH-Linker-RGD4C-6HIS-C端 (VHH)
VHH: QVQLVESGGGLVQAGGSLRLSCTASGQTSSTADMGWFRQPPGKGREFVARISGIDGTTYYDEPVKGRFTISRDKAQNTVYLQMDSLKPEDTAVYYCRSPRYADQWSAYDYWGQGTQVTVSS
In the case of B1, the binding is reported as “binds”.
